Percent effect of library compounds

The values are deposited in ChEMBL (CHEMBL3988442, “University of Dundee, Small-Polar-MMV Screening Library” (2021)).

A: 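Whole-parasite assay of Trypanosoma brucei over 72 hours; the read-out is not stated. Compounds at 30 µM. Direction is inferred from retests: higher values go with stronger inhibition. Values scatter widely below zero; nearly all retest evidence comes from the higher of the two concentrations used. Size under these conditions: about 64,000 compounds, about 940 of them at 50% or above in at least one test.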
B: 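Assay of Toxoplasma gondii numbers, read through their beta-galactosidase reporter with a colour substrate. Compounds at 10 µM. The record gives no direction; the compounds picked for IC50 retests had high values, so higher reads as fewer parasites. About 67,000 compounds were tested under these conditions; 0.38% (about 260) showed 50% or more at least once.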

Results are given as percent effect. The controls that fix the scale are not given in the record; negative values are as filed. This is an unselected part of the compounds tested. A dash means the value is not listed here; it may have been measured.

| compound | A | B |
|---|---|---|
| `Cc1cccc2c1cnn2CCC(=O)NCC(=O)N(C)C` | -24.19% | -28.81% |
| `CNC(=O)C1=NOC2(CCN(Cc3nccs3)C2)C1` (stereo not shown) | -9.209% | 3.27% |
| `CN1C[C@@H](N)C[C@H]1C(=O)N1CCC(Cc2ccc(F)cc2)CC1` | -2.458% | 7.83% |
| `CC(C)n1cc(N2CC(C(=O)N3CCC(C(N)=O)CC3)CC2=O)cn1` (stereo not shown) | -24.65% | 24.57% |
| `Cc1noc(C)c1CN(C)CC(=O)N1CCc2sccc2C1` | 1.399% | -11.87% |
| `OCc1cc2ccccc2nc1NCC1CCN(CC(F)(F)F)C1` (stereo not shown) | -22.3% | -6.275% |
| `CC(CCN(C)C)NC(=O)c1cccc(C(F)(F)F)c1F` (stereo not shown) | 16.66% | 9.177% |
| `Cc1nnn2c1COCC(CNC(=O)c1ccc[nH]1)C2` (stereo not shown) | 12.01% | 6.005% |
| `CCCc1n[nH]c(C2CN(CCn3cccn3)CCO2)n1` (stereo not shown) | 5.973% | -1.047% |
| `[H][C@@]12CS(=O)(=O)C[C@]1([H])N(C(=O)c1cc(C)n[nH]1)CCN2CC=C(C)C` | 13.1% | 15.09% |
| `Cc1oc(CNC(=O)Cc2ccccc2Cl)cc1C(=O)O` | -19.34% | 4.176% |
| `O=C(CCn1cccn1)N1CCN(CC(F)F)CC1` | -52.21% | 2.369% |
| `Cc1cc(O)cc(=O)n1CCCC(=O)Nc1n[nH]c2cc(Br)ccc12` | -25.78% | 12.31% |
| `COCC(=O)N1CCC2(CCCN(Cc3cnn(C)c3)C2)C1` (stereo not shown) | -3.039% | -19.37% |
| `Cc1c[nH]nc1C1CCN(C(=O)C2CCC2)CC1` | - | 14.73% |
| `O=C(Cc1ccccn1)N1CCN(C(=O)c2cccc3[nH]ncc23)CC1` | -2.812% | -0.9561% |
| `CCc1n[nH]c(C2CN(C(=O)c3cnc(C)s3)CCO2)n1` (stereo not shown) | 8.454% | - |
| `CC(C)c1nnsc1CNC(=O)C1CCN(C(C)C)CC1` | -12.67% | -5.224% |
| `CCC(C)S(=O)(=O)N(Cc1ccco1)Cc1ccccc1O` (stereo not shown) | -17.24% | -8.989% |
| `CCS(=O)(=O)N1CCc2c(cccc2NCc2ncc[nH]2)C1` | -17.38% | -3.167% |
| `CCOc1ccc(C(F)(F)F)cc1NC(=O)N1CCC(C(N)=O)CC1` | -14.02% | -0.0672% |
| `Cc1cccc(OCCC(=O)N(C)CC(C)C#N)c1C` (stereo not shown) | 9.501% | 2.581% |
| `CSCc1noc(CNC2CCCC(C)(C)C2)n1` (stereo not shown) | 26.45% | -40.07% |
| `CCOc1ccccc1OC1CCN(C(=O)c2ccc(=O)[nH]n2)CC1` | -11.03% | -15.1% |
| `O=S(=O)(C1CC1)N1CCC2(CCCN(Cc3ccccn3)C2)CC1` | -45.01% | 9.455% |
| `COc1ccc(CN(C)Cc2ccnc(C3CCCO3)n2)cc1` (stereo not shown) | -16.56% | -11.06% |
| `Cc1nc(C2CCCN2CC(=O)NCCOc2ccccc2)no1` (stereo not shown) | 5.612% | 8.751% |
| `COC1CCN(C(=O)c2ccc3ncsc3c2)CC1` | -30.91% | -5.612% |
| `CC(C)(C)Cc1noc2ncc(C(=O)N3CCCSCC3)cc12` | -4.207% | -1.766% |
| `COC1(CNC(=O)NCc2ccccc2)CCSC1` (stereo not shown) | -12.34% | 1.451% |
| `Cl.NC(=O)COc1ccc(CNCc2ccc(F)cc2F)cc1` | 10.56% | -11.34% |
| `O=C(O)C(F)(F)F.[H][C@@]12CN(Cc3cccc(C#N)c3)C[C@]1([H])CN(c1ncccn1)C2` | -90.79% | -0.6947% |
| `Cc1ccc(OCc2nnc(SCC3CCCN(C)C3)o2)cc1` (stereo not shown) | -4.572% | -30.96% |
| `CC(C)c1nnc2n1CCN(C(=O)c1ccc(OCC3CC3)nc1)C2` | -53.04% | 2.462% |
| `O=C1CCC2(CCCN(c3ncc(Cl)cc3F)C2)CN1CC1CC1` (stereo not shown) | -1.76% | -0.7115% |
| `Cc1cc(C(=O)Nc2ccc(CN3CCOCC3)cn2)n(C)n1` | -20.24% | 0.1181% |
| `O=C(O)C(F)(F)F.[H][C@]12CCN(C(=O)c3ccccc3)CC[C@@]1([H])S(=O)(=O)CCN2C` | -129.1% | 0.6414% |
| `COc1ccccc1OCCN1CCCC(c2noc(C3CC3)n2)C1` (stereo not shown) | -11.22% | -1.872% |
| `CC(C)CNC(=O)C1=NOC2(CCN(Cc3ccoc3)C2)C1` (stereo not shown) | -56.88% | -6.805% |
| `Cc1ccc2[nH]c3c(c2c1)CN(C(=O)CN(C)CC1OCCO1)CC3` | -51.18% | - |
| `CN1CCOC(CNCc2c(Cl)nc3ccccn23)C1` (stereo not shown) | -12.37% | 0.3152% |
| `Cn1cc(CN2CCn3cc(CNC(=O)C4CCC4)nc3C2)cn1.O=C(O)C(F)(F)F` | -1.566% | 0.5342% |
| `CCc1cccc(N2CCC(NC(=O)c3ccoc3C)CC2)c1` | 9.109% | -18.45% |
| `CC(C)NC(=O)C1CN(C(=O)c2ccc(F)cc2)CC12CCOCC2` (stereo not shown) | -47.58% | -8.727% |
| `CS(=O)(=O)NCc1cc2n(n1)CCCN(Cc1cc3ccccc3o1)C2` | -23.27% | -10.57% |

Repeated from the top, 3 entries:

Result for Cc1cccc2c1cnn2CCC(=O)NCC(=O)N(C)C was A: -24.19%; B: -28.81%.
Result for CNC(=O)C1=NOC2(CCN(Cc3nccs3)C2)C1 (stereo not shown) was A: -9.209%; B: 3.27%.
Result for CN1C[C@@H](N)C[C@H]1C(=O)N1CCC(Cc2ccc(F)cc2)CC1 was A: -2.458%; B: 7.83%.